Laboratory results from US20090028880A1.
No constants are given. Whether binding was seen depends on the method and setting. Some entries that bind do so weakly or less than the wild type.

Biological target: mouse serum albumin (mouse), P07724
Details: remark: other sources report otherwise

B1: PMP6G7 (VHH)
VHH: QVQLVESGGGLVQPGGSLRLSCAASGFTFSNYWMYWVRVAPGKGLERISRDISTGGGYSYYADSVKGRFTISRDNAKNTLYLQMNSLKPEDTALYYCAKDREAQVDTLDFDYRGQGTQVTVSS
Question: B1 was tested. Which binding did it give?
Answer: The binding was “binds”.
